Some entries share one result that the patent states for a list of compounds.
Test system: doxorubicin-induced cardiotoxicity
Assay: Plasmatic LDH biomarker in doxorubicin-induced cardiotoxicity model
Type: in vivo
Conditions: plasma; DOX 20 mg/kg mice; compound 180 mg/kg; 5 days after DOX; vs DOX vehicle
Experimental: Cardiotoxicity was induced by a single intraperitoneal injection of doxorubicin (DOX) at 20 mg/kg. Doxorubicin was prepared at 2 mg/mL and volume of administration was 10 mL/Kg.
• Group 1: Vehicle (i.p.) • Group 2: Doxorubicin (20 mg/kg) • Group 3: Doxorubicin (20 mg/kg)+compound 001 180 mg/kg • Group 4: Doxorubicin (20 mg/kg)+compound 010 180 mg/kg • Group 5: Doxorubicin (20 mg/kg)+compound 011 180 mg/kg Group Repartition:
The treatment with compounds 001, 010 and 011 was initiated from 5 days before DOX injection once per day from […] to D0.
Mice were i.p treated with compounds 001, 010 and 01130 min before DOX injection.
Mice were i.p treated with compounds 001,010 and 011 for the duration of the experiment (D0 to D5) once per day. Last injection occurred 24 hours before sacrifice.
Retro-orbital blood collection was performed at the inclusion and at 1 and 5 days after the induction with DOX to assess biomarkers (especially LDH).
DOX mice were treated with compounds 001,010 and 011 (180 mg/kg) or vehicle. Plasmatic LDH (lactate dehydrogenase) was measured 5 days after doxorubicin injection.

| Structure (SMILES) | decrease of LDH release / reduction in LDH levels |
| --- | --- |
| NC(=O)c1ccc[n+]([C@H]2O[C@H](COP(=O)([O-])OP(=O)([O-])OC[C@H]3O[C@H]([n+]4cccc(C(N)=O)c4)[C@H](O)[C@@H]3O)[C@@H](O)[C@H]2O)c1 [Compound 011] | 50-55% |
| NC(=O)c1ccc[n+]([C@@H]2O[C@H](COP(=O)([O-])OP(=O)([O-])OC[C@H]3O[C@H]([n+]4cccc(C(N)=O)c4)[C@H](O)[C@@H]3O)[C@@H](O)[C@H]2O)c1 [Compound 010] | 50-55% |
